Source: PubChem BioAssay AID1508597 (Cure First, 2020)
This is a random part of the about 2,100 reagents, under one of the conditions tested. 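Calls flag viability under 80% in either arm, not effects specific to rucaparib; the reference for percent is not stated.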 Unmarked entries are inactive. Some reagents were tested in more than one well and are listed for each. The record does not give: the 100% reference.

- Purpose: 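Knock-downs altering ovarian cancer cell survival with or without PARP inhibitor rucaparib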 (primary screen)
- System: human ovarian carcinoma lines grown from tumours: OCI-P5x (papillary serous) and OCI-C5x (clear cell)
- Reagents: siRNA pool against human genes, 1.25 pmol siRNA per well
- Time to read-out: 72 h or 96 h, depending on the cell culture
- Challenge: rucaparib 20 µM (about IC30) or vehicle, present until read-out
- Rucaparib or vehicle: Vehicle
- Cell line: OCI-P5x (serous)
- Detection: 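Luminescent ATP-based viability assay read 72 or 96 h after transfection, depending on culture, given as normalised percent viability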
- Scale: viability, normalised: higher = more viable cells remaining
- Call rule: 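Active when normalised viability falls below 80 percent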
- Meaning of the calls: active = viability under 80%; inactive = viability 80% or more

Gene | technical replicate | viability, normalised (%)
HNRNPAB | 1 | 83.4
HNRNPAB | 2 | 92.3
HNRNPAB | 3 | 96.9
ADAM17 | 1 | 26.1 (active)
ADAM17 | 2 | 43.9 (active)
ADAM17 | 3 | 94.8
ACVR1C | 1 | 101
ACVR1C | 2 | 89.3
ACVR1C | 3 | 102
DNMT3B | 1 | 51.4 (active)
DNMT3B | 2 | 64 (active)
DNMT3B | 3 | 53.3 (active)
CSF1R | 1 | 93.6
CSF1R | 2 | 88.1
CSF1R | 3 | 90.4
JMJD6 | 1 | 58.3 (active)
JMJD6 | 2 | 73.8 (active)
JMJD6 | 3 | 71.9 (active)
GMEB2 | 1 | 65.2 (active)
GMEB2 | 2 | 79.1 (active)
GMEB2 | 3 | 77 (active)
ERCC8 | 1 | 76.6 (active)
ERCC8 | 2 | 82.6
ERCC8 | 3 | 82.6
DSCC1 | 1 | 97
DSCC1 | 2 | 110
DSCC1 | 3 | 111
TADA3 | 1 | 69 (active)
TADA3 | 2 | 75.4 (active)
TADA3 | 3 | 72.2 (active)
ACVR2A | 1 | 71 (active)
ACVR2A | 2 | 65.7 (active)
ACVR2A | 3 | 54.9 (active)
PRDM12 | 1 | 77.4 (active)
PRDM12 | 2 | 49 (active)
PRDM12 | 3 | 49 (active)
TRIB1 | 1 | 64.8 (active)
TRIB1 | 1 | 71.5 (active)
TRIB1 | 2 | 85
TRIB1 | 2 | 63.2 (active)
TRIB1 | 3 | 74 (active)
TRIB1 | 3 | 64.5 (active)
NDRG1 | 1 | 64.7 (active)
NDRG1 | 2 | 45.3 (active)
NDRG1 | 3 | 56.4 (active)
PDE7A | 1 | 66.7 (active)
PDE7A | 2 | 63.8 (active)
PDE7A | 3 | 68.1 (active)
BMPR1B | 1 | 83.8
BMPR1B | 2 | 72.6 (active)
BMPR1B | 3 | 85.7
AK5 | 1 | 64.2 (active)
AK5 | 2 | 62.2 (active)
AK5 | 3 | 69.2 (active)
BNIP2 | 1 | 55.3 (active)
BNIP2 | 2 | 72.6 (active)
BNIP2 | 3 | 51.4 (active)

8 entries from above, reformatted.
Gene	technical replicate	viability, normalised (%)
JMJD6	3	71.9 (active)
GMEB2	1	65.2 (active)
GMEB2	2	79.1 (active)
GMEB2	3	77 (active)
ERCC8	1	76.6 (active)
ERCC8	2	82.6
ERCC8	3	82.6
DSCC1	1	97
